{"source": "PubChem BioAssay AID1259254, NCATS, 2017", "aim": "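Finding genes that stop cells copying their DNA twice in one cycle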 (primary screen)", "cells": "human HCT116 colorectal cancer cells", "reagent": "single siRNA against human genes", "timing": "3 days", "detection": "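Imaged Hoechst DNA stain sorts each cell into a cycle phase by DNA amount; per plate, G2 fraction set to 0% for non-targeting and 100% for GMNN siRNA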", "reading the numbers": "G2 robust z-score and G2 cells, % of GMNN control: higher = more G2 cells, more excess DNA replication", "call rule": "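An siRNA counts as active if its G2 robust z-score lies at least 5 MADs above the screen median; here such calls match roughly 38% of GMNN control or more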", "note": "The deposit covers about 59,000 reagents; below is a part drawn at random. About 1,550 of all reagents (2.6%) were called active. 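G2 share is only a proxy for re-replication; each gene was hit by three separate siRNAs, and active genes were retested.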 Unmarked entries are inactive. Further read-outs or replicates are left out here. Reagent sequences are not shown. Not given: the amount of reagent."}
{"gene symbol": "SUPT7L", "PubChem SID": "SID160723423", "G2 robust z-score": 0.959, "G2 cells, % of GMNN control": 9.71}
{"gene symbol": "SUPT7L", "PubChem SID": "SID160723424", "G2 robust z-score": 1.01, "G2 cells, % of GMNN control": 10.1}
{"gene symbol": "SUPT7L", "PubChem SID": "SID160723425", "G2 robust z-score": -0.514, "G2 cells, % of GMNN control": -0.65}
{"gene symbol": "LANCL1", "PubChem SID": "SID160728146", "G2 robust z-score": 0.12, "G2 cells, % of GMNN control": 3.81}
{"gene symbol": "LANCL1", "PubChem SID": "SID160728147", "G2 robust z-score": 3.41, "G2 cells, % of GMNN control": 26.9}
{"gene symbol": "LANCL1", "PubChem SID": "SID160728148", "G2 robust z-score": -1.19, "G2 cells, % of GMNN control": -5.39}
{"gene symbol": "HNRNPU", "PubChem SID": "SID160775147", "G2 robust z-score": 1.01, "G2 cells, % of GMNN control": 10}
{"gene symbol": "HNRNPU", "PubChem SID": "SID160775148", "G2 robust z-score": 4.22, "G2 cells, % of GMNN control": 32.7}
{"gene symbol": "HNRNPU", "PubChem SID": "SID160775149", "G2 robust z-score": 4.94, "G2 cells, % of GMNN control": 37.7}
{"gene symbol": "LINC02027", "PubChem SID": "SID160734324", "G2 robust z-score": -0.188, "G2 cells, % of GMNN control": 1.64}
{"gene symbol": "LINC02027", "PubChem SID": "SID160771666", "G2 robust z-score": -0.484, "G2 cells, % of GMNN control": -0.436}
{"gene symbol": "LINC02027", "PubChem SID": "SID160771667", "G2 robust z-score": 1.94, "G2 cells, % of GMNN control": 16.6}

Entries above whose gene name starts with S or s (3):
{"gene symbol": "SUPT7L", "PubChem SID": "SID160723423", "G2 robust z-score": 0.959, "G2 cells, % of GMNN control": 9.71}
{"gene symbol": "SUPT7L", "PubChem SID": "SID160723424", "G2 robust z-score": 1.01, "G2 cells, % of GMNN control": 10.1}
{"gene symbol": "SUPT7L", "PubChem SID": "SID160723425", "G2 robust z-score": -0.514, "G2 cells, % of GMNN control": -0.65}
